# PubChem BioAssay AID602196 – INSERM | 2012
# Purpose: 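Modifiers of cisplatin sensitivity in A549 cells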
# Cells: human A549 lung cancer cells
# Reagent: siRNA pair against human genes
# Duration: 48 h transfection before cisplatin; time from cisplatin to read-out not stated
# Conditions: cisplatin at a dose killing half of control-siRNA cells; exact dose and duration not given
# Measurement: 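Cisplatin cell death as a shift from the 50% death seen with control siRNA; siRNAs toxic or growth-blocking alone scored 0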
# Scale: two-siRNA summed score (-2 to +2): higher = both siRNAs protect from cisplatin killing; -2 means both sensitise; mean protection from cisplatin (shift in death) and protection from cisplatin (shift in death), siRNA C and protection from cisplatin (shift in death), siRNA D: higher = protection from cisplatin killing
# Hit rule: 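Each siRNA scores 0 if harmful alone by LDH or WST-1, otherwise +1 if it reduces and -1 if it increases cisplatin killing; a gene is active when both siRNAs agree (sum +2 or -2)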
# Calls: active = both siRNAs shift cisplatin killing the same way; inactive = no consistent shift, or siRNA harmful alone
# The deposit covers about 23,000 reagents; shown is a part drawn at random. 455 of them (2%) were called active. 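Active includes both protection and sensitisation; some change values fall well beyond the stated -50 to +50 range.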 Reagent sequences are not shown. The record does not give: the amount of reagent.
target gene,two-siRNA summed score (-2 to +2),mean protection from cisplatin (shift in death) (%),"protection from cisplatin (shift in death), siRNA C (%)","protection from cisplatin (shift in death), siRNA D (%)",Call
PARP10,0,-1.5,-8.2,5.1,inactive
CST1,-1,-7.2,1.8,-16.3,inactive
CD69,0,8.2,4.9,11.5,inactive
BIRC6,-1,-23.4,-7.6,-39.2,inactive
VDAC3,0,0.3,1.6,-1,inactive
PASK,0,-0.5,9.8,-10.8,inactive
TRAPPC11,0,3.2,2.7,3.7,inactive
BMP3,1,3.8,20.9,-13.2,inactive
PCNX3,0,7.8,17.1,-1.5,inactive
ARMCX6,0,-1.6,-6.3,3.2,inactive
LOC441001,0,12.8,20.7,4.9,inactive
HDHD5,0,3.4,5.6,1.2,inactive
ZCCHC8,0,2,-4.8,8.8,inactive
ARHGAP15,0,16.2,21.6,10.8,inactive
DLGAP2,0,2.5,7.7,-2.7,inactive
LOC390231,2,14.4,19.2,9.6,active
XRRA1,0,0.5,2.9,-1.9,inactive
MET,0,2.1,11.7,-7.5,inactive
SHISA5,0,2.3,0.6,3.9,inactive
KRT7,0,0.4,5.9,-5.2,inactive
LOC402412,0,4.5,6.2,2.8,inactive
MAS1L,0,-2.8,-9.7,4,inactive
ABHD5,0,3.6,5.6,1.7,inactive
C6orf15,1,22.1,30.4,13.8,inactive
TEX30,0,14.6,7,22.2,inactive
SERINC1,0,-0.5,8.5,-9.6,inactive
INIP,0,10.9,9.1,12.7,inactive
SDS,0,13.9,7.9,19.8,inactive
ENC1,0,-1.9,4.9,-8.7,inactive
SEC14L3,0,0.5,2.3,-1.3,inactive
CAMSAP1,0,10.3,15,5.6,inactive
FBXO30,1,12.4,17.3,7.4,inactive
PPP2R5C,-1,3.5,-8.5,15.5,inactive
LOC202051,0,-3.3,-1.6,-5,inactive
HCK,0,9.2,7.6,10.9,inactive
CFD,1,7,25.6,-11.7,inactive
CT47A11,1,5.5,-7.3,18.3,inactive
LOC389655,1,3.8,10.4,-2.8,inactive
AGAP2,0,1,-4.9,6.9,inactive
BMPR2,-1,-8.3,-3.4,-13.1,inactive
CLIP1,1,10.5,15.9,5.1,inactive
LINC02232,0,9.9,21.1,-1.2,inactive
FCER2,0,1.9,-0.8,4.7,inactive
EIF1,0,-2.4,-1.2,-3.6,inactive
ATP1A1,1,15,17,12.9,inactive
LARP6,1,7,25.1,-11,inactive
GPRC5D,0,5.8,21.2,-9.7,inactive
IFTAP,0,8,4.1,12,inactive
TIPE1,0,-10.9,0,-21.9,inactive
PRSS57,1,16.2,3.2,29.3,inactive
LOC391667,1,22.8,33.3,12.3,inactive
SPATA31A7,0,9.7,4.7,14.7,inactive
LOC441220,0,3.2,5.9,0.5,inactive
LOC389116,0,5.3,-3,13.5,inactive
ZNF208,1,14.9,14.4,15.5,inactive
LOC440423,2,22.6,21.8,23.4,active
ARHGEF15,-1,-9.9,-10.7,-9.1,inactive

A run of entries of the results above, as a working copy:
target gene,two-siRNA summed score (-2 to +2),mean protection from cisplatin (shift in death) (%),"protection from cisplatin (shift in death), siRNA C (%)","protection from cisplatin (shift in death), siRNA D (%)",Call
PPP2R5C,-1,3.5,-8.5,15.5,inactive
LOC202051,0,-3.3,-1.6,-5,inactive
HCK,0,9.2,7.6,10.9,inactive
CFD,1,7,25.6,-11.7,inactive
CT47A11,1,5.5,-7.3,18.3,inactive
